Reference: the supplement of paper PMC10849652
The list shows a part of the results.

Amino acid sequences for entries named in this document (tags omitted). A change or cut given only in a name is not applied to a line headed by its entry.
UniProt O43505: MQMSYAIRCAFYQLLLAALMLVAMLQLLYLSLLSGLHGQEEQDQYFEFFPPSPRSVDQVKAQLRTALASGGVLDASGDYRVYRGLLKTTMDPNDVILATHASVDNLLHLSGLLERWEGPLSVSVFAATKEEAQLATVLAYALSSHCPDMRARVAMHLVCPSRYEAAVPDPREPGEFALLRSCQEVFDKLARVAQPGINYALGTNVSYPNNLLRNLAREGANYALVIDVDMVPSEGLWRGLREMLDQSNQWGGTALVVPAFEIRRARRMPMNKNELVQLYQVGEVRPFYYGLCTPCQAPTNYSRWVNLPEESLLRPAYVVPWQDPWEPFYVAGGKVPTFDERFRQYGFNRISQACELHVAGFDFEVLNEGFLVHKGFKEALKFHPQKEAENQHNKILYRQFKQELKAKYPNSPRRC
UniProt Q9BXH1: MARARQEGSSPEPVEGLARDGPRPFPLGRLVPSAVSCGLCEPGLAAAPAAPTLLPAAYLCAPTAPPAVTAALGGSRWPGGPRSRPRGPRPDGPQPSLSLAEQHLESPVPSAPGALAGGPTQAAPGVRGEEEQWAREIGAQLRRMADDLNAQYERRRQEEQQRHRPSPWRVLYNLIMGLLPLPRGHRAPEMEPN
UniProt Q6Y288: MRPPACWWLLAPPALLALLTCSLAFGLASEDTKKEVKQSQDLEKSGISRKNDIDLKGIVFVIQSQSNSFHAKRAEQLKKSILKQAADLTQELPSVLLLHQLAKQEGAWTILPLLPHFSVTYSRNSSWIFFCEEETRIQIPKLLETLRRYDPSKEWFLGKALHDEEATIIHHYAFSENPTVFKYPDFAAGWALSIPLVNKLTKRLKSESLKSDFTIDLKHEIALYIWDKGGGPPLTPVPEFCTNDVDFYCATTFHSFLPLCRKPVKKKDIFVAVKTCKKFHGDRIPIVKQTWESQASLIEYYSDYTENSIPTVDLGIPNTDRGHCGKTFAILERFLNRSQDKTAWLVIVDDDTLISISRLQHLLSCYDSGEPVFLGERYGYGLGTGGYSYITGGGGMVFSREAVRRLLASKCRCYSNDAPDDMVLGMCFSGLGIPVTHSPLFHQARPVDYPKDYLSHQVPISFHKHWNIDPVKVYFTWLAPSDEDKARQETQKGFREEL
UniProt P12694: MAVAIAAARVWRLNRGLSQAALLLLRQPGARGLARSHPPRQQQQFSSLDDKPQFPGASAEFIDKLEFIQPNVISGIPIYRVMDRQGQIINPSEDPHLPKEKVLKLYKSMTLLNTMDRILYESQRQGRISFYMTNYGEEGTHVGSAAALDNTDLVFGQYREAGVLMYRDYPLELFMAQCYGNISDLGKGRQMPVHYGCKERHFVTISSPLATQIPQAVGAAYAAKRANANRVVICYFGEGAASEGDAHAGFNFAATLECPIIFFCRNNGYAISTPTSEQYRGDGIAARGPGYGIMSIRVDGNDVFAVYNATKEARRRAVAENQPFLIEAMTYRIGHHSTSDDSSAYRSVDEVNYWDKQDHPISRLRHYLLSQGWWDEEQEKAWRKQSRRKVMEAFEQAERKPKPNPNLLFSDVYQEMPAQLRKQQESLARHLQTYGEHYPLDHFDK
UniProt Q99933: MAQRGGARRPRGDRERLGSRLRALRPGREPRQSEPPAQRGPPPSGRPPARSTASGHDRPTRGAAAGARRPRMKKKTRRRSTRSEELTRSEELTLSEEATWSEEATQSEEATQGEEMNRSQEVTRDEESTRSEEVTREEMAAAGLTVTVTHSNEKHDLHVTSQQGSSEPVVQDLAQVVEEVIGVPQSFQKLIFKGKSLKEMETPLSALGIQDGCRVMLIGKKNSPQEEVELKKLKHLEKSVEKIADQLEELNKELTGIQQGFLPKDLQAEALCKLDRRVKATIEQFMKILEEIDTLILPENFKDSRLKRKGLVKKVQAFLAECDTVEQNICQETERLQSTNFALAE
UniProt Q6PJG6: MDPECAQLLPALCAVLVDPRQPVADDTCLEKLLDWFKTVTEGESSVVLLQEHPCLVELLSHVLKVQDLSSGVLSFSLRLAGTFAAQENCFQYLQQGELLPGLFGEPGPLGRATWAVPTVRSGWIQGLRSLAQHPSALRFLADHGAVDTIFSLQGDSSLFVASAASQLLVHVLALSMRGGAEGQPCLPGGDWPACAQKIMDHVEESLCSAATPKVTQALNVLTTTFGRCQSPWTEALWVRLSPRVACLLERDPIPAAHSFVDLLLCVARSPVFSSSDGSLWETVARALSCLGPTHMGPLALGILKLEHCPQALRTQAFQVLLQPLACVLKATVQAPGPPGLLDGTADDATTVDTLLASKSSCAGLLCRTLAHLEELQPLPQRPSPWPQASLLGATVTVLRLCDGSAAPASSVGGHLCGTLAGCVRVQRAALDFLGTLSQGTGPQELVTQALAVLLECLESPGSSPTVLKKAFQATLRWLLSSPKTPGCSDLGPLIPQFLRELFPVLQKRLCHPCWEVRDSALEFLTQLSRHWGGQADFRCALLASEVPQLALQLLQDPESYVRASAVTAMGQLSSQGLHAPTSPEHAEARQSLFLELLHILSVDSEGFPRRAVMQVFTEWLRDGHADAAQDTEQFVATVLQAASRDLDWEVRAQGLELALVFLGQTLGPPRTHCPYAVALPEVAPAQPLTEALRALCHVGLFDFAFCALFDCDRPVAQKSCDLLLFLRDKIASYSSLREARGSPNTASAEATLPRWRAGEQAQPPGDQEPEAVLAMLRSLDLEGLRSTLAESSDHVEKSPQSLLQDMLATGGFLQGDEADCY
UniProt P07738: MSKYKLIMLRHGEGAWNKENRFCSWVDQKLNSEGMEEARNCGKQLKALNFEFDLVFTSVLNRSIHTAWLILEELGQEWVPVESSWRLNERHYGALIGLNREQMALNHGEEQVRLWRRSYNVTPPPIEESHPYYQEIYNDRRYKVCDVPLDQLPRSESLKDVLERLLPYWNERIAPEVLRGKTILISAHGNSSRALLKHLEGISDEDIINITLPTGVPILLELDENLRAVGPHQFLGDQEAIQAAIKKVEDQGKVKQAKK
UniProt Q8TD16, whole entry, looked up: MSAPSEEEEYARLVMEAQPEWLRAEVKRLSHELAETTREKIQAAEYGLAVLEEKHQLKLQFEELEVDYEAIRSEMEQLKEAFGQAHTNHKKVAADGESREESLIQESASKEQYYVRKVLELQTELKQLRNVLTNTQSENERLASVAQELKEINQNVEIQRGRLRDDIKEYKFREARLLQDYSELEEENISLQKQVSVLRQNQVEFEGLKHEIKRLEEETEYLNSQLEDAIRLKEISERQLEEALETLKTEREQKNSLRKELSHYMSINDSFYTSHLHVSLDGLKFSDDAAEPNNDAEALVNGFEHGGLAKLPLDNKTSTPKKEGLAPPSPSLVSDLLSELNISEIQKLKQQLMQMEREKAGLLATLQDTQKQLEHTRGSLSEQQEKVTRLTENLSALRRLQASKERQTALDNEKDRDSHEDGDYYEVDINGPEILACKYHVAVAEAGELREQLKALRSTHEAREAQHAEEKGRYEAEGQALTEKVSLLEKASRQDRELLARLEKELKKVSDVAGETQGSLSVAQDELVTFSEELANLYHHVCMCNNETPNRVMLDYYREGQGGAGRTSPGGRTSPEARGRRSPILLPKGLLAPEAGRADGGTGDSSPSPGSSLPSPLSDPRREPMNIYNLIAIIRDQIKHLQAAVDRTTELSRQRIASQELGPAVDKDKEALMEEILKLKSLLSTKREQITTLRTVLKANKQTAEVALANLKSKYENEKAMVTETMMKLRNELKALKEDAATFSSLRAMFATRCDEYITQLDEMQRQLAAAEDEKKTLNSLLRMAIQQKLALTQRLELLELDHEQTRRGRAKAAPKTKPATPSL

Compound: c1cn2cc(-c3ccc4cn[nH]c4c3)nc(Nc3ccc(N4CCOCC4)cc3)c2n1 [entospletinib]
Assay: log2 fold change, soluble protein after heating vs DMSO (PISA); higher = thermal stabilisation; K562 cells, 10 uM, 30 min; active = over 0.2 and 3.5 SD of the protein, either way, in both replicates (recomputed)
How it was run: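 K562 cells at 2×10^6 cells/mL were given 10 μM compound for 30 min. Aliquots then went through 3 min of heating across 48°C-58°C, were pooled, and were extracted in PBS with 0.5% NP-40 at 4°C, and the supernatant after 21,000xg for 90 min was quantified by TMTpro 16plex LC-MS/MS with channel sums equalised. Thermal stability relative to control samples, from duplicates, is given as log2 fold change.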

log2 fold change, inactive:
BPNT1 (UniProt A6NF51) -0.056
B4GAT1 (UniProt O43505) -0.061
BBC3 (UniProt Q9BXH1) 0.036
B3GLCT (UniProt Q6Y288) 0.026
BCKDHA (UniProt P12694) 0.017
BAG1 (UniProt Q99933) -0.012
BRAT1 (UniProt Q6PJG6) 0.034
BPGM (UniProt P07738) -0.053
BICD2 isoform 2 (UniProt Q8TD16) -0.022
BCKDK (UniProt O14874) 0

Pulled one by one from above (2):
log2 fold change, inactive:
B3GLCT (UniProt Q6Y288) 0.026
BCKDK (UniProt O14874) 0
